The structures appear in SMILES notation. The structures given here were assigned with low confidence; some may be wrong.

Chains of the proteins cited; added tags and fusions are not shown.
UniProt P07949, whole entry, looked up: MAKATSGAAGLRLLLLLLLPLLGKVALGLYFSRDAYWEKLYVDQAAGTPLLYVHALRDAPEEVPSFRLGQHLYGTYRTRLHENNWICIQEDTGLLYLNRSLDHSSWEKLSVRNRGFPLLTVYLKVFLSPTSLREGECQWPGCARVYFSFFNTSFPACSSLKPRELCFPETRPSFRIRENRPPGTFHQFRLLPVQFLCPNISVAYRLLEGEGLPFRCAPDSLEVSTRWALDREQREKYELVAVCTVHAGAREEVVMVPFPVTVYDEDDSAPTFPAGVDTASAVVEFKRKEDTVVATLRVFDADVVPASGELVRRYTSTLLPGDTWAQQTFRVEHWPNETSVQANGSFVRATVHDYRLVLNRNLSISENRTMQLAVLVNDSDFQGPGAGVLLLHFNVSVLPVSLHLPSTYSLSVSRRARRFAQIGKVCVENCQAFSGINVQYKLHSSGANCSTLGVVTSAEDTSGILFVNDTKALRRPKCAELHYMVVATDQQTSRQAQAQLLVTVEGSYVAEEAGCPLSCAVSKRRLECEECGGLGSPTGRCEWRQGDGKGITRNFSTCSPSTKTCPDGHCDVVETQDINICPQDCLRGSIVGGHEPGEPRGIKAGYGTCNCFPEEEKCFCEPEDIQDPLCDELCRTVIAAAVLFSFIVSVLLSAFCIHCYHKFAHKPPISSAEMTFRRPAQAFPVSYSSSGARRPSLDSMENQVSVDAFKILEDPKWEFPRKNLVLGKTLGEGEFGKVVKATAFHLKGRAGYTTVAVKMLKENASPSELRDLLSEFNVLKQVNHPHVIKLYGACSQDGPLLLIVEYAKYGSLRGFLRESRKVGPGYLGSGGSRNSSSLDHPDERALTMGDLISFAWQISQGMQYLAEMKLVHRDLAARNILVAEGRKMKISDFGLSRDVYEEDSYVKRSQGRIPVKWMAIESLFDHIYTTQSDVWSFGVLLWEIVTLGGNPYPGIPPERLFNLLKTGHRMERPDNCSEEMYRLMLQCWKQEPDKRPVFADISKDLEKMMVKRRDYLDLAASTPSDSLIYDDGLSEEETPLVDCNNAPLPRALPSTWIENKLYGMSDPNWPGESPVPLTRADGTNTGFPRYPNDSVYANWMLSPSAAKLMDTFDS
UniProt Q16204, whole entry, looked up: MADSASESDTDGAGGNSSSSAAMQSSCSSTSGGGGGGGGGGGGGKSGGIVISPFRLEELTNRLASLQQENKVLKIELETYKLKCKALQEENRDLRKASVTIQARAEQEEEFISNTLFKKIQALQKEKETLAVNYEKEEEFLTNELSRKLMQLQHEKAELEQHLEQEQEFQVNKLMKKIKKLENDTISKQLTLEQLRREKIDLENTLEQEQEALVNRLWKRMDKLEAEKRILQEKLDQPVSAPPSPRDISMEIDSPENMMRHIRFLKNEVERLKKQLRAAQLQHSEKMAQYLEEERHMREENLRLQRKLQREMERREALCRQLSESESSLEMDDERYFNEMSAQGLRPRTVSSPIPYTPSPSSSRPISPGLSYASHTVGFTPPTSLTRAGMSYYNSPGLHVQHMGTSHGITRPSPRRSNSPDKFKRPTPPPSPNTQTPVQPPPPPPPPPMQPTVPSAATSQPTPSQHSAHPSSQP
UniProt Q96SW2, whole entry, looked up: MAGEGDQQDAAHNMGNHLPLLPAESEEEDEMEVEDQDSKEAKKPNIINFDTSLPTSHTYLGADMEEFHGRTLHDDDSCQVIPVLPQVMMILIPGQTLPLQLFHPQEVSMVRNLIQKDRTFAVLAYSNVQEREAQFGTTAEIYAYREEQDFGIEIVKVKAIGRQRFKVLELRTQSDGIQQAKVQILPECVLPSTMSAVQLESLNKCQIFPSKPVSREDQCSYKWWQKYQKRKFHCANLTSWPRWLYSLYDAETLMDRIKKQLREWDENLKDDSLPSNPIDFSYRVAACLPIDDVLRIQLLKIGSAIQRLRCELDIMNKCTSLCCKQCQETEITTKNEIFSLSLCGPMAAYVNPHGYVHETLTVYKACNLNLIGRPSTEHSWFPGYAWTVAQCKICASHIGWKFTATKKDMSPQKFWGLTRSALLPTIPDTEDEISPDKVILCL

For the test, the target named is CCDC6-RET (Homo sapiens, UniProt P07949+Q16204+Q96SW2). Put plainly: Cellular RET degradation, AlphaLISA, TPC-1 cell line. It counts as cell-based. (In general: Bead proximity is the source of the signal in Alpha formats.)

In the case of `CCOc1cc(-c2ccc(N3CCC(COCCN4CCN(CCCN5CCC(c6ccc7c(c6)C(=O)N(C6CCC(=O)NC6=O)C7)CC5)CC4)(NC(=O)c4cc(F)ccc4F)CC3)nc2)c2c(C#N)cnn2c1` (centres unmarked), for the setting “maximum degradation, 24 hrs”, the “Cell Density TPC-1/CCDC6-RET Ymax %” value is “* (60%<Y≤90%)”. In addition, the DC50 (read-out: Cell Density TPC-1/CCDC6-RET DC50, half-maximal degradation concentration, 24 hrs) is 10 to 100 nM.

Values taken from patent US20260356830A1, “COMPOUNDS FOR MODULATING RET PROTEIN” (Bristol-Myers Squibb Company, priority 2022, published 2026).
